Results from patent publication US11590110B2, “Compositions and methods for reactivating latent immunodeficiency virus using a GSK-3 inhibitor” (priority 2017, dated 2023).

System: NF-κB (p65)
Experiment: Example 5: NF-κB (p65) binding with target DNA sequences, ELISA
Format: cell-based, human
Settings: 250 nM inhibitor

nuclear p65 and dsDNA binding activity on addition to anti-CD3/CD28 coated beads: only a diminution
SMILES: CC(C)n1nc(-c2cc3cc(O)ccc3[nH]2)c2c(N)ncnc21 [PP242]
